Data from the primary screen of doi:10.1371/journal.pone.0140310, rounded.

Drug key:
vismodegib, 5000 nM: CS(=O)(=O)c1ccc(C(=O)Nc2ccc(Cl)c(-c3ccccn3)c2)c(Cl)c1
LFM-A13, 10000 nM: C/C(O)=C(\C#N)C(=O)Nc1cc(Br)ccc1Br
U73122, 2000 nM: COc1ccc2c(c1)CCC1C2CCC2(C)C(NCCCCCCN3C(=O)C=CC3=O)CCC12 (stereo unspecified)
STA-4783, 30 nM: CN(NC(=O)CC(=O)NN(C)C(=S)c1ccccc1)C(=S)c1ccccc1
MK-2206, 2000 nM: NC1(c2ccc(-c3nc4ccn5c(=O)[nH]nc5c4cc3-c3ccccc3)cc2)CCC1
nutlin-3, 500 nM: COc1ccc(C2=N[C@@H](c3ccc(Cl)cc3)[C@@H](c3ccc(Cl)cc3)N2C(=O)N2CCNC(=O)C2)c(OC(C)C)c1
BMS-536924, 1000 nM: Cc1cc(N2CCOCC2)cc2[nH]c(-c3c(NC[C@@H](O)c4cccc(Cl)c4)cc[nH]c3=O)nc12
cisplatin, 8000 nM: N.N.[Cl][Pt][Cl]
GW9662, 10000 nM: O=C(Nc1ccccc1)c1cc([N+](=O)[O-])ccc1Cl
YM155, 2 nM: COCC[n+]1c2c(n(Cc3cnccn3)c1C)C(=O)c1ccccc1C2=O

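Human melanoma cells were exposed to a pair of drugs for 72 h in 1,536-well plates and read by automated microscopy after fixing and staining. The read-out is the fraction of cleaved-PARP-positive nuclei, in % of that fraction in the DMSO control; 200 means twice the control level of this apoptosis marker. Concentrations were fixed for each drug; these are the higher of two levels. The file gives one value for each pair and line, without errors, so small differences may be noise. The marker varies much from line to line, for technical or biological reasons.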 This is part of the screen, not chosen by result. An entry leaves out what has no value listed here.

For YM155 and STA-4783 the values were SK-MEL-5: 6680; IPC-298: 859; A101D: 337; SK-MEL-30: 325; WM1745: 308; MZ2-MEL: 584; COLO 800: 167; MEL-HO: 97.5; SK-MEL-28: 290; LOX IMVI: 199.
For cisplatin and YM155 the values were SK-MEL-5: 277; IPC-298: 374; A101D: 323; SK-MEL-30: 312; WM1745: 87.1; MZ2-MEL: 526; COLO 800: 337; MEL-HO: 79.7; SK-MEL-28: 682; LOX IMVI: 355.
For U73122 and STA-4783 the values were SK-MEL-5: 88.8; IPC-298: 63.0; A101D: 129; SK-MEL-30: 102; WM1745: 104; MZ2-MEL: 133; COLO 800: 131; MEL-HO: 813; SK-MEL-28: 59.7; LOX IMVI: 162.
For MK-2206 and LFM-A13 the values were SK-MEL-5: 119; IPC-298: 236; A101D: 58.2; SK-MEL-30: 180; MZ2-MEL: 62.7; COLO 800: 185; MEL-HO: 110; SK-MEL-28: 73.3; LOX IMVI: 84.3.
For GW9662 and MK-2206 the values were SK-MEL-5: 167; IPC-298: 37.0; A101D: 362; SK-MEL-30: 162; MZ2-MEL: 330; COLO 800: 134; MEL-HO: 72.7; SK-MEL-28: 181; LOX IMVI: 114.
For STA-4783 and GW9662 the values were SK-MEL-5: 74.2; IPC-298: 140; A101D: 181; SK-MEL-30: 108; WM1745: 349; MZ2-MEL: 117; COLO 800: 308; MEL-HO: 119; SK-MEL-28: 231; LOX IMVI: 77.6.
For STA-4783 and nutlin-3 the values were SK-MEL-5: 192; IPC-298: 110; A101D: 333; SK-MEL-30: 194; WM1745: 274; MZ2-MEL: 75.4; COLO 800: 327; MEL-HO: 168; SK-MEL-28: 279; LOX IMVI: 281.
For LFM-A13 and YM155 the values were SK-MEL-5: 283; IPC-298: 32.0; A101D: 173; SK-MEL-30: 201; WM1745: 107; MZ2-MEL: 559; COLO 800: 728; MEL-HO: 84.2; SK-MEL-28: 243; LOX IMVI: 102.
For LFM-A13 and U73122 the values were SK-MEL-5: 348; IPC-298: 244; A101D: 155; SK-MEL-30: 140; WM1745: 108; MZ2-MEL: 176; COLO 800: 142; MEL-HO: 25.4; SK-MEL-28: 150; LOX IMVI: 102.
For nutlin-3 and U73122 the values were SK-MEL-5: 49.6; IPC-298: 79.0; A101D: 444; SK-MEL-30: 138; MZ2-MEL: 42.2; COLO 800: 122; MEL-HO: 88.6; SK-MEL-28: 118; LOX IMVI: 71.3.
For nutlin-3 and YM155 the values were SK-MEL-5: 844; IPC-298: 168; A101D: 117; SK-MEL-30: 49.7; WM1745: 109; MZ2-MEL: 574; COLO 800: 81.3; MEL-HO: 162; SK-MEL-28: 202; LOX IMVI: 77.5.
For vismodegib and STA-4783 the values were SK-MEL-5: 208; IPC-298: 83.2; A101D: 195; SK-MEL-30: 130; WM1745: 226; COLO 800: 292; MEL-HO: 71.6; SK-MEL-28: 234; LOX IMVI: 56.3.
For cisplatin and GW9662 the values were SK-MEL-5: 224; IPC-298: 111; A101D: 173; SK-MEL-30: 183; MZ2-MEL: 207; COLO 800: 124; MEL-HO: 183; SK-MEL-28: 332; LOX IMVI: 146.
For GW9662 and U73122 the values were SK-MEL-5: 29.5; IPC-298: 28.1; A101D: 98.9; SK-MEL-30: 83.9; WM1745: 148; MZ2-MEL: 155; COLO 800: 75.3; MEL-HO: 214; SK-MEL-28: 79.9; LOX IMVI: 136.
For STA-4783 and MK-2206 the values were SK-MEL-5: 203; IPC-298: 200; A101D: 76.3; SK-MEL-30: 283; WM1745: 746; MZ2-MEL: 68.4; COLO 800: 289; MEL-HO: 102; SK-MEL-28: 53.7; LOX IMVI: 130.
For YM155 and vismodegib the values were SK-MEL-5: 1270; IPC-298: 41.1; A101D: 86.5; SK-MEL-30: 231; WM1745: 106; MZ2-MEL: 171; COLO 800: 82.6; MEL-HO: 87.7; SK-MEL-28: 351; LOX IMVI: 40.2.
For BMS-536924 and vismodegib the values were SK-MEL-5: 420; IPC-298: 71.5; A101D: 84.2; SK-MEL-30: 137; WM1745: 135; MZ2-MEL: 69.4; COLO 800: 141; MEL-HO: 78.0; SK-MEL-28: 59.7; LOX IMVI: 112.
For nutlin-3 and cisplatin the values were SK-MEL-5: 230; IPC-298: 79.7; A101D: 98.0; SK-MEL-30: 115; WM1745: 115; MZ2-MEL: 138; COLO 800: 215; MEL-HO: 98.8; SK-MEL-28: 55.0; LOX IMVI: 113.
For U73122 and BMS-536924 the values were SK-MEL-5: 220; IPC-298: 41.5; A101D: 128; SK-MEL-30: 167; WM1745: 607; MZ2-MEL: 23.1; COLO 800: 312; MEL-HO: 95.2; SK-MEL-28: 73.6; LOX IMVI: 124.
For vismodegib and LFM-A13 the values were SK-MEL-5: 90.4; IPC-298: 71.8; A101D: 196; SK-MEL-30: 94.2; MZ2-MEL: 55.7; COLO 800: 98.7; MEL-HO: 152; SK-MEL-28: 174; LOX IMVI: 107.
For cisplatin and STA-4783 the values were SK-MEL-5: 253; IPC-298: 212; A101D: 85.2; SK-MEL-30: 160; WM1745: 91.4; MZ2-MEL: 127; COLO 800: 54.0; MEL-HO: 75.0; SK-MEL-28: 84.4; LOX IMVI: 152.
For nutlin-3 and LFM-A13 the values were SK-MEL-5: 48.6; IPC-298: 39.2; A101D: 156; SK-MEL-30: 130; MZ2-MEL: 19.5; COLO 800: 230; MEL-HO: 113; SK-MEL-28: 271; LOX IMVI: 97.3.
For GW9662 and vismodegib the values were SK-MEL-5: 99.6; IPC-298: 75.3; A101D: 152; SK-MEL-30: 204; MZ2-MEL: 254; COLO 800: 144; MEL-HO: 71.9; SK-MEL-28: 230; LOX IMVI: 36.2.
For BMS-536924 and MK-2206 the values were SK-MEL-5: 159; IPC-298: 74.2; A101D: 159; SK-MEL-30: 159; WM1745: 290; COLO 800: 242; MEL-HO: 508; SK-MEL-28: 110; LOX IMVI: 132.
For cisplatin and U73122 the values were SK-MEL-5: 154; IPC-298: 135; A101D: 617; SK-MEL-30: 182; MZ2-MEL: 83.5; COLO 800: 68.0; MEL-HO: 95.5; SK-MEL-28: 151; LOX IMVI: 244.
For cisplatin and vismodegib the values were SK-MEL-5: 172; IPC-298: 31.8; A101D: 63.3; SK-MEL-30: 131; WM1745: 86.8; MZ2-MEL: 75.0; COLO 800: 148; MEL-HO: 181; SK-MEL-28: 72.6; LOX IMVI: 105.
For cisplatin and MK-2206 the values were SK-MEL-5: 196; IPC-298: 147; A101D: 101; SK-MEL-30: 85.5; WM1745: 136; MZ2-MEL: 137; COLO 800: 121; MEL-HO: 127; SK-MEL-28: 88.8; LOX IMVI: 104.
For GW9662 and LFM-A13 the values were SK-MEL-5: 266; IPC-298: 84.9; A101D: 44.9; SK-MEL-30: 216; WM1745: 122; MZ2-MEL: 17.5; COLO 800: 38.0; MEL-HO: 74.9; SK-MEL-28: 213; LOX IMVI: 446.
For GW9662 and YM155 the values were SK-MEL-5: 1020; IPC-298: 254; A101D: 150; SK-MEL-30: 306; WM1745: 140; MZ2-MEL: 422; COLO 800: 216; MEL-HO: 104; SK-MEL-28: 347; LOX IMVI: 153.
For LFM-A13 and BMS-536924 the values were SK-MEL-5: 123; IPC-298: 27.5; A101D: 42.3; SK-MEL-30: 152; WM1745: 162; MZ2-MEL: 124; COLO 800: 126; MEL-HO: 158; SK-MEL-28: 128; LOX IMVI: 240.
For cisplatin and LFM-A13 the values were SK-MEL-5: 97.6; IPC-298: 78.0; A101D: 110; SK-MEL-30: 98.9; MZ2-MEL: 117; COLO 800: 107; MEL-HO: 71.4; SK-MEL-28: 73.5; LOX IMVI: 171.
For LFM-A13 and STA-4783 the values were SK-MEL-5: 215; IPC-298: 121; A101D: 234; SK-MEL-30: 114; WM1745: 255; MZ2-MEL: 121; COLO 800: 161; MEL-HO: 26.1; SK-MEL-28: 171; LOX IMVI: 144.
For STA-4783 and BMS-536924 the values were SK-MEL-5: 113; IPC-298: 119; A101D: 246; SK-MEL-30: 260; WM1745: 2260; MZ2-MEL: 307; COLO 800: 163; MEL-HO: 81.0; SK-MEL-28: 151; LOX IMVI: 336.
For GW9662 and nutlin-3 the values were SK-MEL-5: 444; IPC-298: 86.5; A101D: 208; SK-MEL-30: 144; MZ2-MEL: 256; COLO 800: 106; MEL-HO: 92.4; SK-MEL-28: 73.6; LOX IMVI: 69.3.
For BMS-536924 and YM155 the values were SK-MEL-5: 1080; IPC-298: 343; A101D: 115; SK-MEL-30: 276; WM1745: 129; MZ2-MEL: 809; COLO 800: 243; MEL-HO: 141; SK-MEL-28: 953; LOX IMVI: 189.
For BMS-536924 and GW9662 the values were SK-MEL-5: 133; IPC-298: 145; A101D: 45.3; SK-MEL-30: 144; WM1745: 165; MZ2-MEL: 89.9; COLO 800: 37.2; MEL-HO: 68.5; SK-MEL-28: 148; LOX IMVI: 155.
For YM155 and U73122 the values were SK-MEL-5: 115; IPC-298: 66.9; A101D: 213; SK-MEL-30: 193; WM1745: 86.7; MZ2-MEL: 72.3; COLO 800: 273; MEL-HO: 104; SK-MEL-28: 150; LOX IMVI: 117.
For BMS-536924 and cisplatin the values were SK-MEL-5: 359; IPC-298: 109; A101D: 194; SK-MEL-30: 67.5; WM1745: 125; MZ2-MEL: 186; COLO 800: 185; MEL-HO: 70.4; SK-MEL-28: 86.7; LOX IMVI: 175.
For YM155 and MK-2206 the values were SK-MEL-5: 4450; IPC-298: 1080; A101D: 82.7; SK-MEL-30: 73.0; WM1745: 114; MZ2-MEL: 571; COLO 800: 144; MEL-HO: 73.7; SK-MEL-28: 629; LOX IMVI: 261.

The last 5 entries again:

* BMS-536924 and YM155 | SK-MEL-5: 1080; IPC-298: 343; A101D: 115; SK-MEL-30: 276; WM1745: 129; MZ2-MEL: 809; COLO 800: 243; MEL-HO: 141; SK-MEL-28: 953; LOX IMVI: 189
* BMS-536924 and GW9662 | SK-MEL-5: 133; IPC-298: 145; A101D: 45.3; SK-MEL-30: 144; WM1745: 165; MZ2-MEL: 89.9; COLO 800: 37.2; MEL-HO: 68.5; SK-MEL-28: 148; LOX IMVI: 155
* YM155 and U73122 | SK-MEL-5: 115; IPC-298: 66.9; A101D: 213; SK-MEL-30: 193; WM1745: 86.7; MZ2-MEL: 72.3; COLO 800: 273; MEL-HO: 104; SK-MEL-28: 150; LOX IMVI: 117
* BMS-536924 and cisplatin | SK-MEL-5: 359; IPC-298: 109; A101D: 194; SK-MEL-30: 67.5; WM1745: 125; MZ2-MEL: 186; COLO 800: 185; MEL-HO: 70.4; SK-MEL-28: 86.7; LOX IMVI: 175
* YM155 and MK-2206 | SK-MEL-5: 4450; IPC-298: 1080; A101D: 82.7; SK-MEL-30: 73.0; WM1745: 114; MZ2-MEL: 571; COLO 800: 144; MEL-HO: 73.7; SK-MEL-28: 629; LOX IMVI: 261